# In doi:10.1101/2023.02.03.527073:
# Sequences of proteins named here, by UniProt entry; tags and fusion partners are left off.
# UniProt P34730: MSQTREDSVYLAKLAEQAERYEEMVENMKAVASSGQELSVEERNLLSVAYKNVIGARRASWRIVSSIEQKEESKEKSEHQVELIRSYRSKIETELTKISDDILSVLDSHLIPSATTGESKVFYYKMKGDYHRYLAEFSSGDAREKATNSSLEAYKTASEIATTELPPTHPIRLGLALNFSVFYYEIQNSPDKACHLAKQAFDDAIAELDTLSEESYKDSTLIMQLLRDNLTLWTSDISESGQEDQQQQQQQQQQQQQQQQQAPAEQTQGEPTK
# UniProt P29311: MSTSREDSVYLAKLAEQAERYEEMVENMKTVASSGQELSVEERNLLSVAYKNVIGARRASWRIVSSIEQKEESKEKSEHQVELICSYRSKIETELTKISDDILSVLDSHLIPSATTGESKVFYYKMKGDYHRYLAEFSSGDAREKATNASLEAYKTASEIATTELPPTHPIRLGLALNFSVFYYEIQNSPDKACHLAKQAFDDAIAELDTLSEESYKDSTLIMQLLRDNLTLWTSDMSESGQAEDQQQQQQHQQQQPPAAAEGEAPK
# Results are given in words; binding and its absence hold for the method and conditions named. Binding seen in cells or lysates may run through a third protein. Some entries that bind do so weakly or less than the wild type. For part of these data: Tags and fused reporters may be left off the sequences shown.
# T1: S. cerevisiae Yaf9, nanoBiT-tagged (S. cerevisiae) (UniProt P53930)
# T1 sequence: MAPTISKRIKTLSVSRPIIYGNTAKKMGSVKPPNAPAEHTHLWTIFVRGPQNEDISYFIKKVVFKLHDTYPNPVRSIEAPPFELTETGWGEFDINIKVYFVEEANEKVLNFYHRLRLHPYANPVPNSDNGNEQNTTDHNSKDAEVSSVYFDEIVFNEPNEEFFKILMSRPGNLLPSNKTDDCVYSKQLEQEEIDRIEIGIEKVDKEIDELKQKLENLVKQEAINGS
# T2: S. cerevisiae Swc4, LgBiT-tagged (S. cerevisiae) (UniProt P53201)
# T2 sequence: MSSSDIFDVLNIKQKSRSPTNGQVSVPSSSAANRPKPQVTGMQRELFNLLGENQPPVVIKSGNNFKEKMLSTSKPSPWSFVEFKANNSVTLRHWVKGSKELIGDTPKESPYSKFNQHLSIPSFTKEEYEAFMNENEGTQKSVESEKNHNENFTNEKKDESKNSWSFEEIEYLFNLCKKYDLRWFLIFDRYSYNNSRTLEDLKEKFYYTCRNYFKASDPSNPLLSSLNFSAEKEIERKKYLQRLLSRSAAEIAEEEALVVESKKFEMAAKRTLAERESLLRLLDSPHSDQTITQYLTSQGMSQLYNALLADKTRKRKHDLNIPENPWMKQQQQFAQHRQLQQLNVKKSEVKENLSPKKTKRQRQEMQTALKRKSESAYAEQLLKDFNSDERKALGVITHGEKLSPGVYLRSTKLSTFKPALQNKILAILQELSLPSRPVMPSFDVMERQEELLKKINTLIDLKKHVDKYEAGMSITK
# B1: S. cerevisiae Bdf1-SmBiT (protein, UniProt P35817 1-686)
# chain: MTDITPVQNDVDVNGNNVNDDVSSNLKRPIDQGDPSNGLAEEENPANNQLHLKKARLDGDALTSSPAGLAENGIEGATLAANGENGYNATGSGAEDEQQGLKKEEGGQGTKQEDLDENSKQELPMEVPKEPAPAPPPEPDMNNLPQNPIPKHQQKHALLAIKAVKRLKDARPFLQPVDPVKLDIPFYFNYIKRPMDLSTIERKLNVGAYEVPEQITEDFNLMVNNSIKFNGPNAGISQMARNIQASFEKHMLNMPAKDAPPVIAKGRRSSAQEDAPIVIRRAQTHNGRPKRTIHPPKSKDIYPYESKKPKSKRLQQAMKFCQSVLKELMAKKHASYNYPFLEPVDPVSMNLPTYFDYVKEPMDLGTIAKKLNDWQYQTMEDFERDVRLVFKNCYTFNPDGTIVNMMGHRLEEVFNSKWADRPNLDDYDSDEDSRTQGDYDDYESEYSESDIDETIITNPAIQYLEEQLARMKVELQQLKKQELEKIRKERRLARGSKKRGKRSKGRSGSKNASSKGRRDKKNKLKTVVTYDMKRIITERINDLPTSKLERAIDIIKKSMPNISEDDEVELDLDTLDNHTILTLYNTFFRQYESSSGASNGLDGTSGVTRDASSLSPTSAGSRKRRSKALSQEEQSRQIEKIKNKLAILDSASPLSQNGSPGQIQSAAHNGFSSSSDDDVSSESEEE
# Experiments:
# Test in all cases: split reporter
# [1] = biological target: S. cerevisiae Bmh2, nanoBiT-tagged (S. cerevisiae) (UniProt P34730)
# [2] = biological target: T1, S. cerevisiae Yaf9, nanoBiT-tagged (S. cerevisiae)
# [3] = biological target: T2, S. cerevisiae Swc4, LgBiT-tagged (S. cerevisiae)
molecule,measurement,setting,value
"S. cerevisiae Bmh1, nanoBiT-tagged (from UniProt P29311 1-267)",binding,[1],binds
B1,binding,[2],binds
same,binding,[3],binds
